{"source": "PubChem BioAssay AID1259308 (NCATS, 2017)", "screen": "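Candidate targets for better recombinant protein yield in mammalian cells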 (primary screen)", "cell system": "human HEK293 embryonic kidney cells stably expressing firefly luciferase (HEK-CMV-Luc2-Hygro)", "reagent": "single siRNA against human genes, 0.8 pmol siRNA per well", "time to read-out": "72 h", "measured": "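Luciferase light (ONE-Glo) measured on one replicate plate set and viability (CellTiter-Glo) on the other, scaled to a negative control siRNA, with robust z-scores and luciferase per cell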", "reading the numbers": "total luciferase, z-score and total luciferase, % of control: higher = more reporter protein produced", "active means": "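Active when the median/MAD z-score for overall luciferase is greater than 3; a gene was taken forward for validation with new siRNAs if at least two of its three siRNAs passed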", "meaning of the calls": "active = raised luciferase; inactive = no rise", "note": "The whole screen tested about 59,000 reagents; this is a random part of them. About 1,510 of all reagents (2.6%) count as active. 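Calls use total luciferase alone and ignore viability, so some active siRNAs may act by altering cell number.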 The numbers tell different reagents against one gene apart. Further read-outs or replicates are left out here."}
{"gene symbol": "TMEM181", "reagent no.": 1, "total luciferase, z-score": -0.0598, "total luciferase, % of control": 80.7, "activity call": "inactive"}
{"gene symbol": "TMEM181", "reagent no.": 2, "total luciferase, z-score": -0.523, "total luciferase, % of control": 71.5, "activity call": "inactive"}
{"gene symbol": "TMEM181", "reagent no.": 3, "total luciferase, z-score": -0.0595, "total luciferase, % of control": 80.7, "activity call": "inactive"}
{"gene symbol": "BCKDHA", "reagent no.": 1, "total luciferase, z-score": -0.584, "total luciferase, % of control": 70.3, "activity call": "inactive"}
{"gene symbol": "BCKDHA", "reagent no.": 2, "total luciferase, z-score": -2.19, "total luciferase, % of control": 38.3, "activity call": "inactive"}
{"gene symbol": "BCKDHA", "reagent no.": 3, "total luciferase, z-score": -0.573, "total luciferase, % of control": 70.5, "activity call": "inactive"}
{"gene symbol": "METTL15", "reagent no.": 1, "total luciferase, z-score": -1.21, "total luciferase, % of control": 57.9, "activity call": "inactive"}
{"gene symbol": "METTL15", "reagent no.": 2, "total luciferase, z-score": 0.785, "total luciferase, % of control": 97.5, "activity call": "inactive"}
{"gene symbol": "METTL15", "reagent no.": 3, "total luciferase, z-score": -0.228, "total luciferase, % of control": 77.3, "activity call": "inactive"}
{"gene symbol": "G2E3", "reagent no.": 1, "total luciferase, z-score": -1.07, "total luciferase, % of control": 60.6, "activity call": "inactive"}
{"gene symbol": "G2E3", "reagent no.": 2, "total luciferase, z-score": -0.831, "total luciferase, % of control": 65.4, "activity call": "inactive"}
{"gene symbol": "G2E3", "reagent no.": 3, "total luciferase, z-score": -2.07, "total luciferase, % of control": 40.7, "activity call": "inactive"}
{"gene symbol": "MFRP", "reagent no.": 1, "total luciferase, z-score": 4.07, "total luciferase, % of control": 163, "activity call": "active"}
{"gene symbol": "MFRP", "reagent no.": 2, "total luciferase, z-score": -1.15, "total luciferase, % of control": 59, "activity call": "inactive"}
{"gene symbol": "MFRP", "reagent no.": 3, "total luciferase, z-score": 3.2, "total luciferase, % of control": 145, "activity call": "active"}
{"gene symbol": "GLYATL1", "reagent no.": 1, "total luciferase, z-score": 0.665, "total luciferase, % of control": 95.1, "activity call": "inactive"}
{"gene symbol": "GLYATL1", "reagent no.": 2, "total luciferase, z-score": -0.48, "total luciferase, % of control": 72.3, "activity call": "inactive"}
{"gene symbol": "GLYATL1", "reagent no.": 3, "total luciferase, z-score": -0.638, "total luciferase, % of control": 69.2, "activity call": "inactive"}
{"gene symbol": "MUC3A", "reagent no.": 1, "total luciferase, z-score": -0.536, "total luciferase, % of control": 71.2, "activity call": "inactive"}
{"gene symbol": "MUC3A", "reagent no.": 2, "total luciferase, z-score": 0.967, "total luciferase, % of control": 101, "activity call": "inactive"}
{"gene symbol": "MUC3A", "reagent no.": 3, "total luciferase, z-score": 1.18, "total luciferase, % of control": 105, "activity call": "inactive"}

Hits, among the entries above:
{"gene symbol": "MFRP", "reagent no.": 1, "total luciferase, z-score": 4.07, "total luciferase, % of control": 163, "activity call": "active"}
{"gene symbol": "MFRP", "reagent no.": 3, "total luciferase, z-score": 3.2, "total luciferase, % of control": 145, "activity call": "active"}

More entries follow.
{"gene symbol": "CBLN2", "reagent no.": 1, "total luciferase, z-score": -0.989, "total luciferase, % of control": 62.2, "activity call": "inactive"}
{"gene symbol": "CBLN2", "reagent no.": 2, "total luciferase, z-score": 0.776, "total luciferase, % of control": 97.3, "activity call": "inactive"}
{"gene symbol": "CBLN2", "reagent no.": 3, "total luciferase, z-score": -0.311, "total luciferase, % of control": 75.7, "activity call": "inactive"}
{"gene symbol": "SPATA13", "reagent no.": 1, "total luciferase, z-score": -0.261, "total luciferase, % of control": 76.7, "activity call": "inactive"}
{"gene symbol": "SPATA13", "reagent no.": 2, "total luciferase, z-score": -0.953, "total luciferase, % of control": 62.9, "activity call": "inactive"}
{"gene symbol": "SPATA13", "reagent no.": 3, "total luciferase, z-score": 3.74, "total luciferase, % of control": 156, "activity call": "active"}
{"gene symbol": "HIRIP3", "reagent no.": 1, "total luciferase, z-score": -0.517, "total luciferase, % of control": 71.6, "activity call": "inactive"}
{"gene symbol": "HIRIP3", "reagent no.": 2, "total luciferase, z-score": -0.782, "total luciferase, % of control": 66.3, "activity call": "inactive"}
{"gene symbol": "HIRIP3", "reagent no.": 3, "total luciferase, z-score": -0.189, "total luciferase, % of control": 78.1, "activity call": "inactive"}
{"gene symbol": "CFAP57", "reagent no.": 1, "total luciferase, z-score": -0.761, "total luciferase, % of control": 66.7, "activity call": "inactive"}
{"gene symbol": "CFAP57", "reagent no.": 2, "total luciferase, z-score": -0.553, "total luciferase, % of control": 70.9, "activity call": "inactive"}
{"gene symbol": "CFAP57", "reagent no.": 3, "total luciferase, z-score": -0.0872, "total luciferase, % of control": 80.2, "activity call": "inactive"}
